The source of these data is PMC12532768.

Sequences of proteins named here, by UniProt entry; tags and fusion partners are left off. A change or cut given only in a name is not applied to a line headed by its entry.
UniProt P05067: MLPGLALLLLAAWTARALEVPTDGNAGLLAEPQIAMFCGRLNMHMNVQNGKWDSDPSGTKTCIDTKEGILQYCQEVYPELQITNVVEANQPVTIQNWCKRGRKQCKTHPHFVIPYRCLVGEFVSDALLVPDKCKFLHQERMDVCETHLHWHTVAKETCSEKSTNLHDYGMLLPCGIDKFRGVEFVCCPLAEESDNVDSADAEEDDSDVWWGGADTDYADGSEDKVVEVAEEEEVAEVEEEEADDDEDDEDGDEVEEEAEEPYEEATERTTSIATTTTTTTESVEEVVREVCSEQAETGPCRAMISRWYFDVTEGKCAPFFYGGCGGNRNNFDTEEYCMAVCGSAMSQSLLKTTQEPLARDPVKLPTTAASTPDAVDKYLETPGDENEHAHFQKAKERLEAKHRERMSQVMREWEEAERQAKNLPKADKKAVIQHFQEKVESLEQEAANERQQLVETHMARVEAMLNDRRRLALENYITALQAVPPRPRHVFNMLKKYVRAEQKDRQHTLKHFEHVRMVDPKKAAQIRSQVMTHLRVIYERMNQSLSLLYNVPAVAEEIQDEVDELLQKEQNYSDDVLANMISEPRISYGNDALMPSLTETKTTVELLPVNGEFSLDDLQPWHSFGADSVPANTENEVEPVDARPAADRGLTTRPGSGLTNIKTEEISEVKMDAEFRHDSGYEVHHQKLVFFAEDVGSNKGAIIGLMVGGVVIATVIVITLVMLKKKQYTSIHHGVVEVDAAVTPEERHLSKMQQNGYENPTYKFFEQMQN

For at least one entry, the source does not settle the construct or the ends of the probe.

The target of the data set is Amyloid-beta 40 (Abeta40) (UniProt P05067). The data set can be described thus: not stated (literature value). The conditions noted are these: value given for both aptamers together; 5'-amino C12, immobilized via glutaraldehyde; Binding buffer 10 mM Tris-HCl, 150 mM NaCl, 5 mM KCl, pH 7.4; temperature not stated; single-stranded DNA.

GCCTGTGGTGTTGGGGCGGGTGCG [apt1 (mOS1)] had a Kd of 0.025 µM.
